# Laboratory results: patent publication US20020058077A1, “Cancer chemotherapeutical and chemopreventive agent” (priority 2000, published 2002)
# For at least one compound, name, drawing or mass did not settle the structure.
# Tests used:
# HCA-7 cells = experiment: HCA-7 nude mice xenograft tumor growth; type: in vivo, Balb/c nude mice; details: Celecoxib 100 mg/kg body wt/day in diet; 4 weeks after inoculation
# HCA-7 xenografts = experiment: Apoptotic cell death in HCA-7 xenograft tumors by TUNEL assay; type: in vivo, Balb/c nude mice; details: Celecoxib 100 mg/kg body wt/day in diet
# NF-κB [1] = experiment: TNF-α induced NF-κB DNA binding activity in CNE1 cells by EMSA; type: cell-based, human; details: PDTC 25 μM × 30 min
# NF-κB [2] = experiment: NF-κB luciferase reporter gene assay in transfected CNE1 cells; type: cell-based, human; details: PDTC 25 μM, Act D 5 μg/ml or CHX 5 μg/ml × 30 min; TNF-α 15 ng/ml × 24 h; order PDTC <Act D <CHX
# CNE1 cells = details: PDTC 25 μM, Act D 5 μg/ml, CHX 5 μg/ml or NS398 10 μM × 30 min, then TNF-α 15 ng/ml × 24 h
SMILES,tumor growth (HCA-7 cells),apoptosis (TUNEL) in xenografts (HCA-7 xenografts),"DNA binding activity of NF-κB determined by EMSA (NF-κB [1]; 5 and 30 min after TNF-α exposure, data not shown)",DNA binding activity of NF-κB determined by EMSA (NF-κB [1]; 1 h after TNF-α exposure),NF-κB dependent transcription (luciferase) (NF-κB [2]),apoptotic cell death in TNF-α treated cells after pretreatment (CNE1 cells)
Cc1ccc(-c2cc(C(F)(F)F)nn2-c2ccc(S(N)(=O)=O)cc2)cc1 [Celecoxib],almost completely blocked,markedly increased apoptosis,–,–,–,–
"S=C(S)N1CCCC1 [PDTC, pyrrolidinedithiocarbamate]",–,–,not effective,a certain degree of reduction,capable of inhibiting,"enhanced apoptotic cell death in TNF-α treated cells, but to a much lesser extent than that of parthenolide"
